Results: PubChem BioAssay AID651582 (Sanford-Burnham Center for Chemical Genomics, 2012)
This is one part of the list. Some salts or complexes appear as unconnected parts, following the source record.

Assay: inhibitors of triacylglycerol accumulation, primary screen, cell-based, uHTS, fluorescence, H9c2 (AID 651582)
Settings: H9c2 cells, Nile Red lipid (TAG) fluorescence; DAPI nuclei count viability; at 12.5 µM; cells loaded with 200 µM oleic acid

| Structure (SMILES) | DAPI activity (viability loss) |
| --- | --- |
| O=[N+]([O-])c1cc([N+](=O)[O-])c(Nc2ccc(Cl)cc2)c([N+](=O)[O-])c1 | -17.9% |
| CCOc1ccc(C2=NCC(CBr)S2)cc1 (centres undefined) | 4.57% |
| CC(C)(C)C(=O)NC(Sc1ccccc1)C(Cl)(Cl)Cl (centres undefined) | 3.42% |
| CC(C)c1ccc(OP(C)(=O)Nc2ccc(SC(F)(F)F)cc2)cc1 (centres undefined) | 2.17% |
| CCc1cc(O)c([N+](=O)[O-])c(C)c1[N+](=O)[O-] | 5.79% |
| Cc1ccccc1CN(C)C(=O)COC(=O)C(O)(c1ccccc1)c1ccccc1 | -2.87% |
| C[C@@H]1C=CCP(=O)(Oc2ccccc2)O1 (some centres undefined) | 2.94% |
| N#C/C(=C\c1ccc(N(CCBr)CCBr)cc1)C(N)=O | -15.8% |
| COC(=O)C1(C)COP(=O)(NCc2ccccc2)OC1 (centres undefined) | -4.34% |
| O=C(OC1CN2CCC1CC2)c1ccc([N+](=O)[O-])cc1 (centres undefined) | -0.106% |
| COc1ccc2c(c1O)-c1c(O)c(OC)cc3c1[C@H](C2)[N+](C)(C)CC3.O=[N+]([O-])c1cc([N+](=O)[O-])c([O-])c([N+](=O)[O-])c1[O-] | 7.38% |
| CC(=O)Nc1ccc([As](=O)(O)O)c(O)c1 | 3.82% |
| CC(=O)Nc1ccc(Oc2c([N+](=O)[O-])cc([N+](=O)[O-])cc2[N+](=O)[O-])cc1 | 12.1% |
| O=P(Nc1nccs1)(c1ccccc1)c1ccccc1 | -7.91% |
| CP(=O)(Nc1ccc(SC(F)(F)F)cc1)Oc1ccc(F)cc1 (centres undefined) | 6.7% |
| c1nnnn1CCn1cnnn1 | 4.3% |
| CCOP(C)(=S)SCC(=O)NC(C)(CC)C(=O)O (centres undefined) | 1.66% |
| CP(=O)(Nc1ccc2c(c1)OCCO2)Oc1ccccc1 (centres undefined) | 3.15% |
| Cc1ccccc1NP(C)(=O)Nc1ccccc1C | -2.59% |
| COc1ccc(OP(C)(=O)Nc2cccc(Br)c2)cc1 (centres undefined) | -13.6% |
| COc1ccc(N)c([N+](=O)[O-])c1[N+](=O)[O-] | -3.26% |
| COc1ccc(NP(C)(=O)Oc2ccccc2OC)cc1 (centres undefined) | -9.95% |
| O=P(Nc1nc2ccccc2s1)(c1ccccc1)c1ccccc1 | -5.85% |
| C[C@H]1OP(=O)(Oc2ccccc2)[C@H](O)[C@H](O)[C@H]1N=[N+]=[N-] (some centres undefined) | 2.77% |
| O=[As](O)(c1ccccc1)c1ccc(O)cc1 | -5.3% |
| O=[N+]([O-])c1cc([N+](=O)[O-])c(NCC2CCS(=O)(=O)C2)c([N+](=O)[O-])c1 (centres undefined) | -2.33% |
| Cc1cc(-c2cccc3ccccc23)c(C)cn1.O=[N+]([O-])c1cc([N+](=O)[O-])c(O)c([N+](=O)[O-])c1 | 5.09% |

| Structure (SMILES) | DAPI activity (viability loss) |
| --- | --- |
| O=[N+]([O-])c1ccc(O)c(/C=N/Nc2ccc([N+](=O)[O-])cc2[N+](=O)[O-])c1 | -3.51% |
| O=[N+]([O-])c1ncn(CCn2cnc([N+](=O)[O-])n2)n1 | 10.9% |
| O=C(OC1CN2CCC1CC2)c1cccc(Cl)c1 (centres undefined) | 10.6% |
| Cc1c(C(c2ccc3c(c2)OCO3)c2c(C)n(C)n(-c3ccccc3)c2=O)c(=O)n(-c2ccccc2)n1C.O=[N+]([O-])c1cc([N+](=O)[O-])c(O)c([N+](=O)[O-])c1 | 9.94% |
| Nc1ccc([As](=O)(O)c2ccc([N+](=O)[O-])cc2)cc1 | -2.12% |
| O=P1(N(CCCl)CCCl)OCCCS1 (centres undefined) | 5.3% |
| O=[N+]([O-])c1ncn(CCn2ncnc2[N+](=O)[O-])n1 | -9.97% |
| CC(C)(C)C(=O)NC(Sc1ccncn1)C(Cl)(Cl)Cl (centres undefined) | -1.54% |
| O=[N+]([O-])c1cccc(NC2=NCC(CBr)S2)c1 (centres undefined) | -0.978% |
| COC(=O)C1(C)COP(=O)(Nc2ccccc2)OC1 (centres undefined) | -2.71% |
| CCN(CC)CC(O)COC(=O)C(O)(c1ccccc1)C1CCCCC1 (centres undefined) | 1.14% |
| COc1ccc(C2=NCC(CBr)S2)cc1 (centres undefined) | 1.49% |
| Cc1ccc(NP(=O)(Oc2ccccc2)Oc2ccccc2)nc1 | 7.66% |
| CP(=O)(Oc1ccccc1)N1CCOC1=O (centres undefined) | 4.52% |
| O=[N+]([O-])c1cc([N+](=O)[O-])c(CCNc2ccccc2)c([N+](=O)[O-])c1 | 2.7% |
| CCc1ccc(OP(C)(=O)Nc2cccnc2)cc1 (centres undefined) | -2.09% |
| COc1ccccc1OP(C)(=O)Nc1c(C)n(C)n(-c2ccccc2)c1=O (centres undefined) | -4.49% |
| O=[N+]([O-])c1cccc2n[nH]nc12 | -2.64% |
| O=C(OCCCN1CCCC1)C(O)(c1ccccc1)C1CCCCC1 (centres undefined) | 8.87% |
| CCN(/C(=N/P(=O)(N1CCOCC1)N1CCOCC1)N1CCOCC1)c1ccc(OC)cc1 | -6.32% |
| Nc1ccc([As](=O)(O)c2ccc(N)cc2)cc1 | -0.605% |
| COc1ccccc1OP(C)(=O)Nc1ccccc1Br (centres undefined) | -2.17% |
| C[N+]1=C2C=CC=CC=C2SC12C([N+](=O)[O-])=CC([N+](=O)[O-])=C[C-]2[N+](=O)[O-] (centres undefined) | -52.5% |
| c1cc(-c2nn[nH]n2)ccc1-c1nn[nH]n1 | 0.431% |
| CC1CCN(C(=O)Oc2c(Cl)cc(Cl)c3cccnc23)CC1 | 5.98% |
| CN(C)C(=O)c1c([N+](=O)[O-])cc([N+](=O)[O-])cc1[N+](=O)[O-] | -15% |
| CC(C)=N/N=C(\N)N[N+](=O)[O-] | -1.97% |

| Structure (SMILES) | DAPI activity (viability loss) |
| --- | --- |
| CC(C)c1nc(Nc2ccccc2)n(P(=O)(N(C)C)N(C)C)n1 | -2.23% |
| COc1ccccc1OP(C)(=O)Nc1ccc(Br)cc1 (centres undefined) | 0.672% |
| CN(C(=O)Cc1ccc(Cl)c(Cl)c1)[C@H]1CCCC[C@H]1N1CCCC1 | 0.265% |
| Cc1ccc(N/C(=N/P(=O)(N2CCOCC2)N2CCOCC2)N2CCOCC2)cc1 | -2.19% |
| NC(=O)c1cc([N+](=O)[O-])cc([N+](=O)[O-])c1N | -12.6% |
| Clc1ccc(Cl)c(NC2=NCC(CBr)S2)c1 (centres undefined) | 6.79% |
| CN1CCCC(OC(=O)C(c2ccccc2)c2ccccc2)C1 (centres undefined) | 5.45% |
| COc1ccccc1OP(=O)(Nc1ccc(C)cn1)Oc1ccccc1OC | -4.85% |
| Cc1ccc(OP(=O)(Nc2nccs2)Oc2ccc(C)cc2)cc1 | -2.49% |
| O=[N+]([O-])c1cc([N+](=O)[O-])c(Nc2ccccn2)c([N+](=O)[O-])c1 | 11.4% |
| Cc1c(NP(C)(=O)Oc2ccc(C(C)C)cc2)c(=O)n(-c2ccccc2)n1C (centres undefined) | 8.57% |
| Nc1cc(N)c2nonc2c1[N+](=O)[O-] | 4.89% |
| CCc1ccc(OP(C)(=O)O)cc1 | 2.09% |
| CP(=O)(Nc1ccccn1)Oc1ccccc1 (centres undefined) | 8.21% |
| COc1ccccc1OP(C)(=O)Nc1ccc(C)cc1C (centres undefined) | 14.9% |
| O=C1C(O)=C([N+](=O)[O-])C(=O)C(O)=C1[N+](=O)[O-] | 8.31% |
| Cc1cc(C)cc(OP(C)(=O)Nc2cccc(C(F)(F)F)c2)c1 (centres undefined) | -5.64% |
| CN(C)P(=O)(N(C)C)n1c(Nc2ccccc2)nnc1-c1ccccc1 | 5.51% |
| O=P(Nc1nc2ccc(Cl)cc2s1)(c1ccccc1)c1ccccc1 | -2.4% |
| CCCC1OP(N)(=O)OCC1CC (centres undefined) | 3.63% |
| Cc1ccc(NP(=O)(Oc2ccccc2F)Oc2ccccc2F)nc1 | -5.39% |
| CN(C(=O)Cc1ccc(Cl)c(Cl)c1)[C@H]1CCCC[C@@H]1N1CCCC1 | -7.3% |
| CP(=O)(OCCOc1ccccc1)OCCOc1ccccc1 | 11.4% |
| CP(=O)(Nc1ccc(Cl)cc1Cl)Oc1ccccc1 (centres undefined) | -14.2% |
| CCCCCCCCCCCCCCCC1C[N+](C)(C)CCOP(C)(=O)O1 (centres undefined) | 24.3% |
